In article PMC7819943, “Rice protein-binding microarrays: a tool to detect cis-acting elements near promoter regions in rice” one finds binding signal data, which are given here for 42 sequences.

The chains behind the UniProt entries cited, without tags or fusion partners.
UniProt Q0JBA9, entry or part of it: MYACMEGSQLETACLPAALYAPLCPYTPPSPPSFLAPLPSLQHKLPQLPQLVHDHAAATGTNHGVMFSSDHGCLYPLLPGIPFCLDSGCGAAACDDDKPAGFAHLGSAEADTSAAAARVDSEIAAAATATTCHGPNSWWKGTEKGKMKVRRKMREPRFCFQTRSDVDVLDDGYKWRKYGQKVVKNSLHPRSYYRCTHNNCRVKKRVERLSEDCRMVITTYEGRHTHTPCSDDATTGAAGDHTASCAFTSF

Some of the results follow.

The experiment concerns the target OsWRKY34 (Oryza sativa, UniProt Q0JBA9 1-250). As to the kind of experiment: protein-binding microarray (RPBM); PBS, 2% BSA, 51.3 ng/ul salmon testes DNA, 50 uM zinc acetate, 200 nM TF, 25 C, 1 h; high values mean tight binding. To be noted: protein: recombinant; tags: N-terminal polyhistidine and DsRed monomer fusion (pET32a); label: CyDye5-dUTP incorporated in the synthesized complementary strand; 3' TTTTT single-stranded linker to array surface; dsDNA, one strand shown. Summed up:
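Binding signal is reported as fluorescence intensity per feature (arbitrary units) from an Axon 4000B scanner. Incubation used 200 nM of each Ni–NTA-purified, N-terminally polyhistidine- and DsRed-fused transcription factor from E. coli BL21-CodonPlus on a double-stranded custom Agilent array for 1 h at 25 °C, with 50 µM zinc acetate in the buffer, followed by washing.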
For “GCCCACCATTAGGGCGGCAGGGGCTATTTCTACAATTTTTCGGAGTCACCTAGTGCAG”, the binding signal was 8350 fluorescence intensity (a.u.).

For “ATGGGAACCCAGCTTTCGATTGAAATTTAGAATATTTTTCCGGAGTCACCTAGTGCAG”, the binding signal was 8530 fluorescence intensity (a.u.).

Take “GTTGCTGTTTTTGATGGTCGTTGAGACAGATAGTTTGGTACGGAGTCACCTAGTGCAG”: the binding signal was 8360 fluorescence intensity (a.u.).

“CTTCCATTTCCACGTGCTCATTCACGCCCGCATCATAAACCGGAGTCACCTAGTGCAG”: the binding signal is 14200 fluorescence intensity (a.u.).

For the sequence “CTCTGCTCCTTCGTCCTCGGCCCCGGCGACGCCGCCTCCGCGGAGTCACCTAGTGCAG”, the binding signal is 10500 fluorescence intensity (a.u.).

For the sequence “GTGTACTCCCTTCGTTTCATATATTATAAATTGCTTTGACCGGAGTCACCTAGTGCAG”, the binding signal was 10600 fluorescence intensity (a.u.).

For the sequence “CCCCGCTGCTTCTTCCGCCGCATCCTTCGCTCGCTCGCTGCGGAGTCACCTAGTGCAG”, the binding signal was 11700 fluorescence intensity (a.u.).

For the sequence “AATTTTTTCGTCACATCGTTCTAATTTTAACCAAAATTATCGGAGTCACCTAGTGCAG”, the binding signal is 9290 fluorescence intensity (a.u.).

In the case of “CGACAGGTCAAAACCGACATAGCAGCTATTCCTTCCATCTCGGAGTCACCTAGTGCAG”, the binding signal is 9310 fluorescence intensity (a.u.).

For “CACATCTCTCTCTTTCTCTCTCTCTCTCTCTCTTCATCTACGGAGTCACCTAGTGCAG”, the binding signal was 10700 fluorescence intensity (a.u.).

Turning to “ATCACCACTTCGTCCAGGGCCTACGCACCAAATCACAATCCGGAGTCACCTAGTGCAG”, the binding signal is 10400 fluorescence intensity (a.u.).

Consider “GTTCAGCCTCTCATCATATACTTCCACCACATTTTATAGGCGGAGTCACCTAGTGCAG”, for which the binding signal is 8050 fluorescence intensity (a.u.).

For the sequence “TAAGGTTTATTTTGGTTATAATCTGAACAACCCCTATATCCGGAGTCACCTAGTGCAG”, the binding signal is 12600 fluorescence intensity (a.u.).

Regarding “TGCCGCACCGGTCCAACCAATCTGCTACACGGCCGGTCTACGGAGTCACCTAGTGCAG”, the binding signal was 12300 fluorescence intensity (a.u.).

As for “TCTGTCTCTCAGTCATAAAATTGTACTGGTATTTGATAATCGGAGTCACCTAGTGCAG”, the binding signal is 9350 fluorescence intensity (a.u.).

“TTTCTTTTCATATATTTTTGTTTATTTTCTCTCATTTCTCCGGAGTCACCTAGTGCAG”: the binding signal is 11300 fluorescence intensity (a.u.).

For “CAAATTTGGTATTTCTCTCTGCTCACTCCATCCCTCAACTCGGAGTCACCTAGTGCAG”, the binding signal was 8830 fluorescence intensity (a.u.).

As to “ATGTAGTCCCATCTCCTTAATCATCTCAATCCCTTTATAACGGAGTCACCTAGTGCAG”, the binding signal is 8720 fluorescence intensity (a.u.).

Turning to “AATCTTTTCTCTCTTTTTTTGGTATTTCGAGAGGAGAAACCGGAGTCACCTAGTGCAG”, the binding signal is 8920 fluorescence intensity (a.u.).

For “ACTTTCTTTGGTCTTACATTGCGCTGTGGATTGGTTGTGTCGGAGTCACCTAGTGCAG”, the binding signal is 10100 fluorescence intensity (a.u.).

With “TTGCTTCTTGTTGCTGTTGTTCTTGGTTGGATCTTTGATGCGGAGTCACCTAGTGCAG”, the binding signal is 9320 fluorescence intensity (a.u.).

Take “TCCCATCATGTTCACAACTTGCTCCCTGCTTACCTGGTGACGGAGTCACCTAGTGCAG”: the binding signal was 9010 fluorescence intensity (a.u.).

For “CACTCCGTTTTCTATGCGTAGGAGATTTGTTCCCATATTCCGGAGTCACCTAGTGCAG”, the binding signal was 8330 fluorescence intensity (a.u.).

In the case of “GCAGTAGTAGGTGGGTTGGTAGAGTAGAGGGGAGGATATGCGGAGTCACCTAGTGCAG”, the binding signal was 8700 fluorescence intensity (a.u.).

With “GTCCTGGAGAGCTACCGCCGTCGCGCCTGTCCCTGCCTCCCGGAGTCACCTAGTGCAG”, the binding signal is 8190 fluorescence intensity (a.u.).

In the case of “ACTTGGTGGGCTCATTATTTTTTTTTTTCTGATTTTGCATCGGAGTCACCTAGTGCAG”, the binding signal is 8100 fluorescence intensity (a.u.).

Regarding “ATATCATGTCTTGGTGCAAGATCTTTATTTGTAGGAATCACGGAGTCACCTAGTGCAG”, the binding signal is 9380 fluorescence intensity (a.u.).

“CCGGTCCACCACATCCTCGGCCACACTTGACGCCTCCCTCCGGAGTCACCTAGTGCAG”: the binding signal was 9480 fluorescence intensity (a.u.).

In the case of “GTGATGTGCTGCAACCTCGCCGCCAGCCGCGCCCTGTGCGCGGAGTCACCTAGTGCAG”, the binding signal is 8560 fluorescence intensity (a.u.).

Take “CCTTAGCCCGACTGTCTTCAACTTCCTTCTGCAACAATTCCGGAGTCACCTAGTGCAG”: the binding signal is 8070 fluorescence intensity (a.u.).

As to “GCCTGATGGTCGTTGCTCACTTGTTTTTCGAAGTGATCCTCGGAGTCACCTAGTGCAG”, the binding signal was 8850 fluorescence intensity (a.u.).

As to “ATCTATGTCCTTATGCACTTACCTGAAATGATTGATGTCACGGAGTCACCTAGTGCAG”, the binding signal is 12400 fluorescence intensity (a.u.).

Consider “TCATCTTAGGCAGTTCCATCCTTTTGTGCTCATCTGAACTCGGAGTCACCTAGTGCAG”, for which the binding signal is 9920 fluorescence intensity (a.u.).

On to “TAAACATAATAGCAGAAGACCTGGTAAGCATTCTTTTTTTCGGAGTCACCTAGTGCAG”, for which the binding signal was 8440 fluorescence intensity (a.u.).

For the sequence “GCTCGTCGTTATTCCGCGGCGCCATCTTCCTCTCTCCTCCCGGAGTCACCTAGTGCAG”, the binding signal was 8860 fluorescence intensity (a.u.).

“CGGAATGATGGGGCTGTTTCTCCCTTGCGCGGCCATTGCTCGGAGTCACCTAGTGCAG”: the binding signal was 9880 fluorescence intensity (a.u.).

Consider “GTTTTCTGTCTCTTACGTGTACCTACCCATCGTTGAAACACGGAGTCACCTAGTGCAG”, for which the binding signal was 8240 fluorescence intensity (a.u.).

With “CGTCCGATCGGTCCGCATGTTTTTTTTGGCCGTTGATCAACGGAGTCACCTAGTGCAG”, the binding signal was 11800 fluorescence intensity (a.u.).

With “TTGCCCGCGTCTCGTCGCCATCTTTGTACTACGCCAATGGCGGAGTCACCTAGTGCAG”, the binding signal was 8180 fluorescence intensity (a.u.).

For “GCGCGGCGCGGCGGGACGGGGTGGGGCGAGGGCAGCAGCGCGGAGTCACCTAGTGCAG”, the binding signal was 8520 fluorescence intensity (a.u.).

Turning to “GGATTTTCTTCCGATCTCGCTTCCACCTCGCCGCCTCGCCCGGAGTCACCTAGTGCAG”, the binding signal is 9120 fluorescence intensity (a.u.).

For “TATCCCTGTTGTGGCGCTGCTGCCCATGGTGACCTCCTGCCGGAGTCACCTAGTGCAG”, the binding signal is 8350 fluorescence intensity (a.u.).
